{"sequences": {"note": "Chains of the proteins cited; added tags and fusions are not shown.", "UniProt P20226": "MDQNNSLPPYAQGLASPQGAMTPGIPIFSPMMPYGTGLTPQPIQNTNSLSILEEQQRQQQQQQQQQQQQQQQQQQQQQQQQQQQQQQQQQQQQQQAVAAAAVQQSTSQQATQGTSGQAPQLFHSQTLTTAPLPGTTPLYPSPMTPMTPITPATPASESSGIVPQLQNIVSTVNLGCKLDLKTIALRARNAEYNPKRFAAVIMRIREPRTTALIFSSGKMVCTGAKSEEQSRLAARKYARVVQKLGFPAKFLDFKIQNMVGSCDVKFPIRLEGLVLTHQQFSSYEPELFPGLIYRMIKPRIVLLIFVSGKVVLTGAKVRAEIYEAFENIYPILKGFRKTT"}, "source": "paper PMC9758055", "target": "TATA box-binding protein TBP (human) (UniProt P20226)", "experiment": "co-sedimentation; SNAPc (FL or core) pre-incubated with snRNA promoter DNA, then TFIIA–TFIIB, TBP, pre-formed Pol II–TFIIF and TFIIE added; 10–30% sucrose-gradient ultracentrifugation, 175,000g, 16 h, 4 °C; fractions analysed by SDS–PAGE; both purified", "note": "No constants are given. Whether binding was seen depends on the method and setting. Some entries that bind do so weakly or less than the wild type.", "data": [{"substance": "SNAPc-FL (snRNA-activating protein complex with all full-length subunits) (from UniProt Q16533 1-368; Q13487 1-334; Q92966 1-411; Q5SXM2 1-1469; O75971 1-98)", "values": [{"measurement": "binding", "value": "binds"}]}]}
